Measurements reported in article PMC5458547, “Discovery of first-in-class reversible dual small molecule inhibitors against G9a and DNMTs in hematological malignancies” (Nature Communications, 2017).

Test system: 90 non-mutant kinases
Assay: KINOMEscan selectivity score
Assay type: binding
Details: 10 µM

## COc1cc2c(NC3CCN(C)CC3)cc(-c3ccc(C)o3)nc2cc1OCCCN1CCCC1 [CM-272, 6-methoxy-2-(5-methyl-2-furyl)-N-(1-methyl-4-piperidyl)-7-(3-pyrrolidin-1-ylpropoxy)quinolin-4-amine]
Percent Control < 1%
  Number of Hits S(1): 7
Percent Control < 10%
  Number of Hits S(10): 12
Percent Control < 35%
  Number of Hits S(35): 29
